# In PubChem BioAssay AID2685 (National Center for Advancing Translational Sciences (NCATS), 2010):
# Some of the results follow. Further columns of the screen follow, without active or inactive calls. The list favours compounds with an active or inconclusive main result. The note in brackets gives the kind of curve behind each potency; many fits are weak.
# Test: qHTS Assay for Lipid Storage Modulators in Drosophila S3 Cells;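 as to cell number change: cells counted by Cell Tracker Red CMTPX staining in the red channel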
# Conditions: BODIPY lipid droplet fluorescence, 18-24 h; for cell number change: measured here: cell count max response, cells fed with added oleic acid
# Method in brief: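 Drosophila S3 cells got compounds at several concentrations plus oleic acid (400 uM solution). Laser-scanning cytometry with 488 nm excitation read lipid droplets at 500-530 nm and cells at 575-640 nm. Percent activity was relative to 20 uM Triacsin C.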
# [1] = measured here: lipid fluorescence (Fed channel) AC50, cells fed with added oleic acid
# [2] = measured here: cell number channel AC50, cells fed with added oleic acid
SMILES,cell number change,AC50 [1],AC50 [2]
Cn1c(=O)c([N+](=O)[O-])c(NC2CCS(=O)(=O)C2)c2ccccc21 (stereo not given),-17.3%,–,–
CC(=O)Nc1cccc(C(=O)OC2CCOC2=O)c1 (stereo not given),–,"25900 nM [falling, single point]",–
O=c1c(Cl)c(NS(=O)(=O)c2ccccc2)cnn1-c1ccccc1,-20.4%,"116 nM [rising, full curve, poor fit]",–
COc1ccccc1OCCNC(=O)C1CC(=O)N(Cc2ccc(C)cc2)C1 (stereo not given),–,–,"580 nM [rising, partial curve]"
CCOc1ccc(N2C(=O)C(Cl)=C(N3CCOCC3)C2=O)cc1,-7.33%,"29100 nM [falling, single point]",–
COc1cccc(CNCC(=O)Nc2ccc(N3CCOCC3)cc2)c1,8.92%,–,–
Cc1nc(SCC(=O)NCC2CCCO2)c2oc3ccccc3c2n1 (stereo not given),-3.12%,"5800 nM [rising, full curve]",–
COc1ccc(OC)c(CNC(=O)c2nn(C)c3c2CS(=O)(=O)c2ccccc2-3)c1,17.9%,"20600 nM [rising, single point]",–
CC(=O)c1c(C)[nH]c(C(=O)OCn2nnc3ccccc3c2=O)c1C,3.28%,"920 nM [rising, full curve, poor fit]",–
CN(C)CCn1c(NCc2ccc3c(c2)OCO3)nc2ccccc21,17.2%,"29100 nM [falling, single point]","4.11 nM [rising, full curve, poor fit]"
CCCc1cc(=O)oc2c(C)c(OCC(=O)NC3CCN(Cc4ccccc4)CC3)ccc12,8.26%,–,–
C=CCOc1ccc(/C(O)=C2/C(=O)C(=O)N(CCCn3ccnc3)C2c2cccs2)cc1 (stereo not given),0.878%,"29100 nM [falling, single point]",–
Fc1ccc2nc(Nc3ccccc3)sc2c1,3.85%,–,"731 nM [falling, single point]"
COc1ccc(N(CC(=O)NC2CCCCC2)C(=O)c2ccc(C)s2)c(OC)c1,-7.62%,–,"82 nM [rising, partial curve, poor fit]"
Cc1nc(N2CCCC2C(=O)O)c2oc3ccccc3c2n1 (stereo not given),-5.97%,"517 nM [falling, full curve, poor fit]",–
COc1ccc(NC(=O)NCc2ccco2)cc1OC,-15.6%,"184 nM [falling, full curve, poor fit]",–
CC1=C(C(=O)N2CCOCC2)C(c2ccc(Br)cc2)NC(=S)N1c1ccccc1 (stereo not given),13.1%,"103 nM [falling, partial curve, poor fit]","92 nM [falling, partial curve, poor fit]"
CC(NC(=O)COC(=O)Cc1ccccc1[N+](=O)[O-])c1ccccc1 (stereo not given),-7.84%,"103 nM [falling, full curve, poor fit]",–
COc1ccc(/C=C(\NC(=O)c2ccccc2)C(=O)N2CCN(C)CC2)cc1OC,5.86%,"1460 nM [falling, full curve]",–

# Grouped by structure, the entries above with sulfur (8)
SMILES,cell number change,AC50 [1],AC50 [2]
Cn1c(=O)c([N+](=O)[O-])c(NC2CCS(=O)(=O)C2)c2ccccc21 (stereo not given),-17.3%,–,–
O=c1c(Cl)c(NS(=O)(=O)c2ccccc2)cnn1-c1ccccc1,-20.4%,"116 nM [rising, full curve, poor fit]",–
Cc1nc(SCC(=O)NCC2CCCO2)c2oc3ccccc3c2n1 (stereo not given),-3.12%,"5800 nM [rising, full curve]",–
COc1ccc(OC)c(CNC(=O)c2nn(C)c3c2CS(=O)(=O)c2ccccc2-3)c1,17.9%,"20600 nM [rising, single point]",–
C=CCOc1ccc(/C(O)=C2/C(=O)C(=O)N(CCCn3ccnc3)C2c2cccs2)cc1 (stereo not given),0.878%,"29100 nM [falling, single point]",–
Fc1ccc2nc(Nc3ccccc3)sc2c1,3.85%,–,"731 nM [falling, single point]"
COc1ccc(N(CC(=O)NC2CCCCC2)C(=O)c2ccc(C)s2)c(OC)c1,-7.62%,–,"82 nM [rising, partial curve, poor fit]"
CC1=C(C(=O)N2CCOCC2)C(c2ccc(Br)cc2)NC(=S)N1c1ccccc1 (stereo not given),13.1%,"103 nM [falling, partial curve, poor fit]","92 nM [falling, partial curve, poor fit]"

# Next part.

SMILES,cell number change,AC50 [1],AC50 [2]
O=C(Cc1coc(-c2ccc(F)cc2)n1)Nc1ccccc1,2.97%,"164 nM [rising, single point]",–
COc1ccc(CNc2cc(C)ccn2)cc1,13.6%,"130 nM [rising, full curve, poor fit]",–
CCOc1ccc(NC(=O)CCCOc2cc(=O)n(C)c3ccccc23)cc1,18.7%,"1160 nM [rising, full curve]",–
Cc1cc(NC(=O)CCN2C(=O)/C(=C/c3ccccc3Cl)SC2=S)no1,-18.7%,"25900 nM [falling, single point]",–
Cc1ccc(C(=O)N[C@H](C(=O)Nc2sccc2C(N)=O)C(C)C)cc1,15.2%,"1460 nM [rising, full curve]",–
Fc1ccc(C2=CC(c3ccco3)n3ncnc3N2)cc1 (stereo not given),5.75%,"92 nM [falling, full curve, poor fit]",–
O=C(CCN1C(=O)C2C3C=CC(C3)C2C1=O)NCCN1CCCc2ccccc21 (stereo not given),-4.83%,"3660 nM [rising, partial curve]",–
CCCN1CCc2c(sc(NC(=O)c3ccc(S(=O)(=O)N4CCCC4)cc3)c2C(N)=O)C1,-9.05%,"5170 nM [falling, partial curve, poor fit]",–
CC1(C)CC(=O)C(=Cc2cn(CCC#N)nc2-c2ccc(Cl)cc2)C(=O)C1,-32.1%,"1460 nM [falling, full curve, poor fit]","3660 nM [falling, full curve]"
O=C(N/N=C/c1ccco1)c1ccccc1OCc1ccccc1Cl,15.4%,"1640 nM [rising, single point]","1160 nM [rising, partial curve]"
N#CC12CCCCC1CC1CCCCC1(C#N)N2Cc1ccccn1 (stereo not given),-32.8%,–,"7.31 nM [falling, full curve]"
CCOC(=O)c1c(-c2ccccc2)csc1NC(=O)c1cc(S(=O)(=O)N2CCOCC2)ccc1C,-37.2%,"4110 nM [falling, single point]","8200 nM [falling, partial curve]"
O=C(NCCc1c[nH]c2ccccc12)/C(=C\c1cccs1)NC(=O)c1ccccc1,-12.5%,"4610 nM [rising, partial curve]",–
OC(COc1ccc2c(c1)OCO2)CN1CCCC1 (stereo not given),-33.9%,"23100 nM [falling, single point]","2060 nM [falling, single point]"
CCN(CC)C(=O)/C(=C/c1ccc2c(c1)OCO2)NC(=O)c1ccc(Br)cc1,-5.67%,"517 nM [falling, single point]",–
CCC(C)NC(=O)c1cn(CC)c2ccc(S(=O)(=O)N3CCCCCC3)cc2c1=O (stereo not given),-5.65%,"18400 nM [falling, partial curve]",–
Cc1cccc(NC(=O)CSCC(=O)Nc2sccc2C#N)c1,-35.8%,"29100 nM [falling, single point]","18400 nM [falling, partial curve]"
CCOc1ccc(OCC)c(NC(=O)CCS(=O)(=O)c2ccc(Br)s2)c1,–,–,"1640 nM [rising, single point]"
